Data taken from patent US20190209565A1.
Results are given in words; binding and its absence hold for the method and conditions named. For part of these data: Binding seen in cells or lysates may run through a third protein. Some entries that bind do so weakly or less than the wild type.

Protein sequences, listed by entry. Tags and fused reporters are not part of them.
UniProt Q14457: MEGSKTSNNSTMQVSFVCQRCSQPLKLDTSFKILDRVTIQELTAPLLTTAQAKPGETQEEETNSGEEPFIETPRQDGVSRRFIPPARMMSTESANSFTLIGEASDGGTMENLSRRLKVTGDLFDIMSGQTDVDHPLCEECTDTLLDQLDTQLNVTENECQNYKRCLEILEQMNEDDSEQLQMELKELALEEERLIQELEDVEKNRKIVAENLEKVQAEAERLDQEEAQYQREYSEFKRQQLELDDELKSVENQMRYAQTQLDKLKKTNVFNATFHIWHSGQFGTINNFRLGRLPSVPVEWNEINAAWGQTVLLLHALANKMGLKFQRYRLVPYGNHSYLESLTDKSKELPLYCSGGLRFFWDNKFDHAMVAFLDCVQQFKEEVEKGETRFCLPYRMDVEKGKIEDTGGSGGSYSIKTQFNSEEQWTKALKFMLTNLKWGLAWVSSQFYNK

Columns and labels:
[1] = biological target: Beclin-1 (endogenous in HEK293 cells) (human) (UniProt Q14457); assay: co-immunoprecipitation with anti-Beclin-1 from HEK293 lysates, Western blot (FIG. 4B)
[2] = biological target: Beclin-1 (endogenous in HEK293 cells) (human) (UniProt Q14457); assay: co-immunoprecipitation, Western blot (FIG. 4 legend)
FLAG-Beclin-1 (human) = FLAG-Beclin-1 (human) (UniProt Q14457); assay: anti-GFP immunoprecipitation from HEK293 cells expressing FLAG-Beclin-1 and YFP-tagged ErbB2, Western blot (FIG. 4E)

Row | binding [1] | binding [2] | binding (FLAG-Beclin-1 (human)) | Substance
1 | binds | binds |  | ErbB2 (endogenous in HEK293 cells) (from UniProt P04626 23-1255) (receptor)
2 |  |  | binds | YFP-tagged ErbB2 (from UniProt P04626 31-1255) (receptor)
